Reference: PubChem BioAssay AID624291 (National Center for Advancing Translational Sciences (NCATS), 2012)
In all, about 350,000 compounds went through this assay and about 220 (0.063%) were called active. The inconclusive results got no clear call from the source; some entries with a clear call stand among them for comparison. Calls follow the shape of the dose curve; as a rule, active = well fitted activation curve with a large enough effect; inconclusive = small, poorly fitted or top-dose-only effect; inactive = no such curve, though single readings can be large or run the other way. Potencies beside an inconclusive call are fits to weak or partial responses and may not hold up.

assay: qHTS for Activators of Integrin-Mediated Alleviation for Muscular Dystrophy; conditions: alpha7betagal myoblasts, beta-gal FDG fluorescence, 48 h; activation: at 38.3 µM (top of the series); also: nearly all actives have a fitted effect of over 60% in size;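 as to activation: 100% = response of the positive control SU9516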
Summary of the method: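 alpha7betagal+/- myoblasts (passage 13, 250/well) treated 48 h at 37C with compounds at 1:260 dilution of DMSO stock. Lysed, then beta-galactosidase activity read as FDG fluorescence (ex 480/em 540) after 30 min, with pre-read for autofluorescence.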
Potency is read from the fitted curve at half-maximal effect.

SMILES	Potency	activation
C#CCOc1ccc(Cl)cc1/C=N/O	inconclusive: 14.1 µM [activator, single point]	–
CCOC(=O)c1cc(-c2ccc3c(c2)OCCO3)nc2c1c(C)nn2CCC#N	inactive	–
CC(=O)Nc1ccc2nc(NC(=O)CCc3ccccc3)sc2c1	inconclusive: 5.01 µM [activator, single point]	–
O=C(O)c1ccccc1C=NN=C1c2ccccc2-c2ccccc21	inconclusive: 0.631 µM [activator, single point]	–
O=C1C(Cc2ccccc2)Nc2ncnc(N3CCCCC3)c2N1Cc1ccc(Cl)cc1 (stereo not drawn)	inactive	–
Cc1cc(NC(=O)c2ccc(Cl)cc2)n(CCOC(=O)c2ccc(Cl)cc2)n1	inactive	–
O=C1Nc2c(ccc(Cl)c2Cl)C(=O)C1(F)c1ccccc1 (stereo not drawn)	inconclusive: 5.01 µM [activator, partial curve, poor fit]	–
CC(C)c1ccc(S(=O)(=O)NCc2ccc3c(c2)OCO3)cc1	inactive	–
O=C(COC(=O)Cc1ccccc1F)Nc1cccc(S(=O)(=O)NC2=NCCCCC2)c1	inconclusive: 3.98 µM [activator, single point]	–
CC1CCCN(C(=O)Cn2nnc(-c3ccc(N(C)C)cc3)n2)C1 (stereo not drawn)	inconclusive: 8.91 µM [activator, partial curve, poor fit]	–
CC(C)c1ccc(C(=O)OC2CCOC2=O)cc1 (stereo not drawn)	inconclusive: 5.01 µM [activator, single point]	–
Cc1ncn2cc(-c3ccc(Cl)cc3Cl)[nH]c(=O)c12	inconclusive: 2.82 µM [activator, single point]	–
CCN1CCN(c2ccc(S(=O)(=O)N3CCCCC3)cc2N)CC1	inconclusive: 3.98 µM [activator, single point]	–
Cc1ccc(C(=O)Nc2ccccc2N2CCCCC2)o1	inconclusive: 10 µM [activator, partial curve, poor fit]	–
COc1ccc(NC(=O)COC(=O)C2CC3C=CC2C3)cc1 (stereo not drawn)	inconclusive: 28.2 µM [activator, single point]	–
O=C(Oc1ccc(Nc2ncnc3ccccc23)cc1)c1cccnc1	inconclusive: 28.2 µM [activator, single point]	–
COc1ccc(C(=O)Nc2ccc3c(c2)C(=O)N(C)C3=O)cc1OC	inconclusive: 11.2 µM [activator, partial curve, poor fit]	–
Cc1c(C(=O)NCc2ccccn2)oc2ccc(S(=O)(=O)N3CCOCC3)cc12	inconclusive: 0.501 µM [activator, full curve, poor fit]	–
COc1ccccc1-c1c(-c2ccc(O)cc2O)n[nH]c1C(F)(F)F	inconclusive: 28.2 µM [activator, single point]	–
Cc1cc(NC(=O)Nc2cc(Cl)sc2Cl)no1	inactive	–
CCN(C(=O)CN1CCc2ccccc21)c1c(N)n(Cc2ccccc2)c(=O)[nH]c1=O	inconclusive: 4.47 µM [activator, single point]	–
COc1ccccc1N1CCN(C(c2cc3ccc(C)cc3[nH]c2=O)c2nnnn2C2CCCC2)CC1 (stereo not drawn)	–	inactive: 1.63% [at 7.66 µM]

A draw from above in order of molecular weight, largest number first.
SMILES	Potency	activation
O=C1C(Cc2ccccc2)Nc2ncnc(N3CCCCC3)c2N1Cc1ccc(Cl)cc1 (stereo not drawn)	inactive	–
CCN(C(=O)CN1CCc2ccccc21)c1c(N)n(Cc2ccccc2)c(=O)[nH]c1=O	inconclusive: 4.47 µM [activator, single point]	–
Cc1cc(NC(=O)c2ccc(Cl)cc2)n(CCOC(=O)c2ccc(Cl)cc2)n1	inactive	–
Cc1c(C(=O)NCc2ccccn2)oc2ccc(S(=O)(=O)N3CCOCC3)cc12	inconclusive: 0.501 µM [activator, full curve, poor fit]	–
CCOC(=O)c1cc(-c2ccc3c(c2)OCCO3)nc2c1c(C)nn2CCC#N	inactive	–
O=C(Oc1ccc(Nc2ncnc3ccccc23)cc1)c1cccnc1	inconclusive: 28.2 µM [activator, single point]	–
CC(=O)Nc1ccc2nc(NC(=O)CCc3ccccc3)sc2c1	inconclusive: 5.01 µM [activator, single point]	–
CC(C)c1ccc(S(=O)(=O)NCc2ccc3c(c2)OCO3)cc1	inactive	–
CC1CCCN(C(=O)Cn2nnc(-c3ccc(N(C)C)cc3)n2)C1 (stereo not drawn)	inconclusive: 8.91 µM [activator, partial curve, poor fit]	–
O=C(O)c1ccccc1C=NN=C1c2ccccc2-c2ccccc21	inconclusive: 0.631 µM [activator, single point]	–
O=C1Nc2c(ccc(Cl)c2Cl)C(=O)C1(F)c1ccccc1 (stereo not drawn)	inconclusive: 5.01 µM [activator, partial curve, poor fit]	–
CC(C)c1ccc(C(=O)OC2CCOC2=O)cc1 (stereo not drawn)	inconclusive: 5.01 µM [activator, single point]	–

The listing continues.

SMILES	Potency	activation
CN1c2ccsc2C(O)=C(C(=S)Nc2ccc(F)c(Cl)c2)S1(=O)=O	inactive	–
O=C(CN1CCOCC1)n1c2c(c3ccccc31)CCCC2	inconclusive: 11.2 µM [activator, single point]	–
CCc1ccc2[nH]c(=O)c(CN(CCN(C)C)C(=O)Nc3ccccc3)cc2c1	inactive	–
CCOc1ccc(NC(=O)C(=O)NCCN2CCN(S(=O)(=O)c3ccccc3)CC2)cc1	inconclusive: 3.16 µM [activator, partial curve, poor fit]	–
CN(C(=O)c1ccc(=O)n(Cc2ccc(Cl)cc2)c1)c1ccccc1	inconclusive: 2.82 µM [activator, single point]	–
CC(=O)NS(=O)(=O)c1ccc(N2C(=O)CC(Sc3nccc(C)n3)C2=O)cc1 (stereo not drawn)	inconclusive: 28.2 µM [activator, single point]	–
CCCCNc1nnc(SCC(=O)c2c(N)n(CCC)c(=O)[nH]c2=O)s1	active: 3.98 µM	–
Cc1ccc(N(C(=O)c2snc(C(N)=O)c2N)C(CC(C)C)C(=O)NC2CCCC2)cc1 (stereo not drawn)	inactive	–
CC(C)(C)NC(=O)C(Cc1ccccc1)NS(=O)(=O)c1cccc2nsnc12 (stereo not drawn)	inconclusive: 6.31 µM [activator, partial curve, poor fit]	–
CCOC(=O)c1c(NC(=O)COC(=O)c2nc(Cl)ccc2Cl)sc2c1CCC2	inactive	–
Cc1ccc(-c2nc3cccnc3s2)cc1NC(=O)c1ccco1	inconclusive: 28.2 µM [activator, single point]	–
Cc1ccc2[nH]cc(CCCN3C(=O)c4ccccc4C3=O)c2c1	inconclusive: 28.2 µM [activator, partial curve, poor fit]	–
CCn1ccc(C(=O)N2CCN(c3ncccn3)CC2)n1	inconclusive: 3.16 µM [activator, single point]	–
CCOc1ccccc1NC(=O)Nn1cnnc1	inconclusive: 3.16 µM [activator, single point]	–
O=C(N/N=C/c1ccccc1)c1ccco1	inconclusive: 11.2 µM [activator, partial curve, poor fit]	–
CCOCCCNC(=O)c1ccc(N2CCOCC2)c(NS(=O)(=O)c2ccc(OC)cc2)c1	inconclusive: 11.2 µM [activator, partial curve, poor fit]	–
CS(=O)(=O)c1sc(C#N)c2c1C(=O)CC(c1ccccc1)C2 (stereo not drawn)	inconclusive: 1.12 µM [activator, partial curve, poor fit]	–
COc1cc(/C=N/NC(=O)c2cccnc2)cc(Br)c1O	inconclusive: 4.47 µM [activator, single point]	–
CC(=O)c1ccc(NC(=O)CSc2nnc(C3CC3)n2C2CC2)cc1	inconclusive: 3.55 µM [activator, single point]	–
CCOc1ccc(C2Nc3ccc4ccccc4c3-c3c2c(=O)oc2ccccc32)cc1 (stereo not drawn)	inactive	–
Cc1ccc(C(=O)CCC(=O)Nc2ccccc2C)c(C)c1	inactive	–
